From PubChem BioAssay AID2685 (National Center for Advancing Translational Sciences (NCATS), 2010)
This is one part of the list. Further columns of the screen follow, without active or inactive calls. Compounds called inactive in the main read-out are mostly missing here. Words in brackets tell the shape of the fitted curve; partial curves, single points and poor fits give uncertain potencies.

Experiment: qHTS Assay for Lipid Storage Modulators in Drosophila S3 Cells;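 for cell number change: cells counted by Cell Tracker Red CMTPX staining in the red channel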
Conditions: BODIPY lipid droplet fluorescence, 18-24 h; for cell number change: measured here: cell count max response, cells fed with added oleic acid
Method in brief: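 Drosophila S3 cells loaded with oleic acid (400 uM, as added) and compounds at several concentrations; lipid droplets imaged by 488-nm laser-scanning cytometry, 500–530 nm intensity and object ratio to cell channel. Percent activity normalized to 20 uM Triacsin C.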

[1] = measured here: lipid fluorescence (Fed channel) AC50, cells fed with added oleic acid
[2] = measured here: cell number channel AC50, cells fed with added oleic acid

SMILES	cell number change [%]	AC50 [1]	AC50 [2]
CCn1nc(NS(=O)(=O)c2ccccc2)c2cc3ccc(C)cc3nc21	-3.54	29.1 µM [rising, single point]	–
C/C=C/Cn1c(SC)nc2c1c(=O)[nH]c(=O)n2C	27.9	–	4.11 µM [rising, full curve, poor fit]
N#CC(c1ccccc1)N(CCCCl)C(=O)c1ccc(Br)cc1 (stereo not given)	-11.9	7.31 µM [falling, partial curve]	–
CCOC(=O)CCC(=O)N1CCNC(=O)C1	-10.5	20.6 µM [falling, partial curve]	–
O=C(CSc1nnc(CNC(=O)c2ccccc2)o1)NCc1ccccc1	-30.2	0.651 µM [falling, full curve]	9.2 µM [falling, partial curve]
OCC[C@@H]1C[C@H](O)[C@@H](O)[C@]2(CCc3ccccc3CO2)O1	2.69	29.1 µM [rising, single point]	–
COc1ccc(Cn2nnnc2C(c2cc3ccc(OC)cc3[nH]c2=O)N2CCCCCC2)cc1 (stereo not given)	-0.136	6.51 µM [rising, single point]	–
COC(=O)Nc1csc2c1NC(=O)CCCC2	15.5	–	–
Cn1nccc1C(=O)NC1CCCc2c1cnn2-c1cc(F)cc(F)c1 (stereo not given)	5.42	–	–
CCOC(=O)c1c(-c2ccccc2)csc1NC(=S)NC(=O)c1ccccc1	65.1	–	1.46 µM [rising, full curve]
COc1ccc(C(=O)NCCc2c[nH]c3ccccc23)cc1[N+](=O)[O-]	-48.1	–	18.4 µM [falling, partial curve]
CC(=O)Nc1c(C(=O)c2ccccc2)oc2ccccc12	-25.3	–	–
O=C(O)CCCC(=O)Nc1cccc2cccnc12	-16.7	–	0.651 µM [falling, full curve, poor fit]
COc1cccc(NC(=O)Cn2c(CCC(=O)O)ccc2-c2cccs2)c1	-7.2	–	2.91 µM [falling, single point]
CS(=O)(=O)N1CCN=C1SCc1ccc(Br)cc1	-10.4	–	–
Cc1nnsc1-c1onc(C)c1C(=O)O/N=C/c1ccc(Cl)cc1	5.3	5.17 µM [falling, single point]	–
O=C(CN1C(=O)c2ccccc2C1=O)NN1C(=O)c2ccccc2C1=O	16.1	9.2 µM [rising, single point]	–
CCCSc1nc(N2CCCC2)c2c(c1C#N)CC(C)(C)OC2	14.3	20.6 µM [rising, partial curve]	–
CC(C)(C)OC(=O)[C@H](Cc1ccccc1)NC(=O)c1nc[nH]c1C(=O)N1CCN(c2ccccc2)CC1	6.89	29.1 µM [falling, single point]	–

A few values from above.
Entry for CS(=O)(=O)N1CCN=C1SCc1ccc(Br)cc1 under cell number change [%]: -10.4
Entry for OCC[C@@H]1C[C@H](O)[C@@H](O)[C@]2(CCc3ccccc3CO2)O1 under AC50 [1]: 29.1 µM [rising, single point]
